Source: PubChem BioAssay AID651784 (National Center for Advancing Translational Sciences (NCATS), 2012)
This list was built around the results that the source calls inconclusive (neither active nor inactive); the mix of calls is not that of the screen. Potencies beside an inconclusive call are fits to weak or partial responses and may not hold up. Calls of active or inactive are those of the source. Calls follow the shape of the dose curve; as a rule, active = well fitted inhibition curve with a large enough effect; inconclusive = small, poorly fitted or top-dose-only effect; inactive = no such curve, though single readings can be large or run the other way.

Experiment: Acumen qHTS Assay for Inhibitors of the mTORC1 Signaling Pathway in MEF (Tsc2-/-, p53-/-) Cells: Hit Validation;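 also: phospho-rpS6 Ser235/236 immunofluorescence normalized to propidium iodide cell count; nearly all actives have a fitted effect of over 65% in size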
Settings: Acumen imaging
Potency is read from the fitted curve at half-maximal effect.

Structure (SMILES)	Potency
CCCCC(CC)CNC(=O)c1ccc(Cn2c(=O)[nH]c3cc(OC)c(OC)cc3c2=O)cc1 (stereo unspecified)	inconclusive: 23.3 µM [inhibitor, single point]
CCOC(=O)c1c(NC(=O)c2nc(S(C)(=O)=O)ncc2Cl)sc(C(C)=O)c1C	active: 4.14 µM
CCn1c(CN2CCC(C)CC2)nc2cc(NC(=O)c3ccccc3[N+](=O)[O-])ccc21	inconclusive: 26.1 µM [inhibitor, single point]
Cc1ccc(C)c(CN2CCC(CNC(=O)c3cc4ccc5cccnc5c4[nH]3)CC2)c1	inconclusive: 14.7 µM [inhibitor, single point]
Cc1cc(NCc2ccc(Cl)cc2)n2cnnc2n1	inconclusive: 18.5 µM [inhibitor, single point]
Cc1cccc(CSc2cn(CC(=O)N3CCCCCC3)c3ccccc23)c1	inconclusive: 26.1 µM [inhibitor, single point]
CCS(=O)(=O)c1ncc(Cl)c(C(=O)Nc2ccc(S(=O)(=O)N(C)c3ccccc3)cc2)n1	active: 1.47 µM
Cc1ccc(C2c3c(-c4ccccc4O)n[nH]c3C(=O)N2CCc2ccccc2)cc1 (stereo unspecified)	inconclusive: 16.5 µM [inhibitor, single point]
CCOC(=O)c1c(NC(=O)c2ccc(S(=O)(=O)N(C)C)cc2)sc2c1CCN(C)C2	inconclusive: 23.3 µM [inhibitor, single point]
CC1C(=O)N2CCCc3cc(S(=O)(=O)Nc4ccc(Br)cc4F)cc1c32 (stereo unspecified)	active: 4.65 µM
Cc1c(C(=O)OCc2ccccc2)[nH]c2c1C(=O)CC(c1ccc(Cl)cc1)C2 (stereo unspecified)	inconclusive: 14.7 µM [inhibitor, single point]

Already shown: entries from further up.
Structure (SMILES)	Potency
CCS(=O)(=O)c1ncc(Cl)c(C(=O)Nc2ccc(S(=O)(=O)N(C)c3ccccc3)cc2)n1	active: 1.47 µM
Cc1ccc(C2c3c(-c4ccccc4O)n[nH]c3C(=O)N2CCc2ccccc2)cc1 (stereo unspecified)	inconclusive: 16.5 µM [inhibitor, single point]
